From PubChem BioAssay AID1347076 (National Center for Advancing Translational Sciences (NCATS), 2019)
The campaign covered roughly 400,000 compounds. About 13,000 (3.2%) were called active. Inconclusive means that the source gave no clear call. Such entries were picked first, then a sample of the others. Calls come from the whole dose curve; as a rule, active = well fitted cell-killing curve with a large enough effect; inconclusive = small, poorly fitted or top-dose-only effect, or effect the other way; inactive = flat fitted curve, though single readings scatter. Potencies beside an inconclusive call are fits to weak or partial responses and may not hold up.

Experiment: qHTS assay for MDR1-selective chemotherapeutics: Primary screen using the drug-selected MDR subline cells KB-V1; note: nearly all actives have a fitted effect of over 60% in size
Settings: KB-V1 MDR cells viability, CellTiter-Glo, 72 h; activity change, negative = cytotoxicity: at 46.1 µM (top of the series)
How it was run: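 Readout: CellTiter-Glo luminescence, 10 min after addition. Cells: KB-V1 MDR subline, 72 h at 37 degrees C with compound. Analysis: corrected, normalized data fitted to concentration-effect curves.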
% is set by controls: 0 for no effect and ±100 for the full control effect; potency is the fitted concentration of half-maximal effect.

Structure (SMILES) | Potency | activity change, negative = cytotoxicity
CCOC(=O)c1oc2ccc(CNCCO)c(Cl)c2c1C | inconclusive: 6.51 µM [cytotoxic, partial curve, poor fit] | 
CCN1CC=C2C(C1)C(c1ccc(Cl)s1)C(C#N)=C(N)C2(C#N)C#N (stereo not given) | active: 14.6 µM | 
CCc1c(C)c2ccccc2[nH]c1=O | active: 2.31 µM | 
CC(=O)N1N=C(c2ccccc2)CC1c1cn(Cc2ccccc2)c2ccccc12 (stereo not given) | active: 14.6 µM | 
Cc1cc(C(=O)OC(C)C(=O)NC2CCCCC2C)c(C)o1 (stereo not given) | inconclusive: 23.1 µM [cytotoxic, single point] | 
CCCCOc1ccc(Cc2c(Cl)nc(SC)nc2N2CCOCC2)cc1 | active: 20.6 µM | 
O=C(CSc1nc2ccccc2c(=O)[nH]1)N1CCN(c2ccccc2)CC1 | inconclusive: 11.6 µM [cytotoxic, partial curve] | 
Cc1c(C(=O)N2CCCCCC2)c(S(=O)(=O)Nc2cccc(F)c2)c(C)n1C |  | inactive: -2.58%
COc1cc(OC)cc(-c2nnc(SCC(=O)Nc3ccc(C(=O)O)cc3)s2)c1 | inconclusive: 29.1 µM [rising, single point] | 
Cc1ccc2nc(N/N=C/c3ccccc3F)nc(-c3ccccc3)c2c1 | inconclusive: 29.1 µM [cytotoxic, single point] | 
CCCC(C(=O)Nc1ccc(C)c(S(=O)(=O)N2CCOCC2)c1)c1ccccc1 (stereo not given) | inconclusive: 9.2 µM [cytotoxic, partial curve] | 
O=c1[nH]c(CN(CCc2ccccc2)S(=O)(=O)c2ccc(Cl)cc2)nc2ccccc12 | active: 3.26 µM | 
CCCCc1ccc(NC(=O)CSc2nc(=O)n(CCN(C)C)c3c2CCC3)cc1 |  | inactive: -19.4%
COc1ccc(CNCCC(c2ccc(F)cc2)c2ccc(OC)cc2)cc1 (stereo not given) | inconclusive: 23.1 µM [cytotoxic, single point] | 
COc1cccc(C(=O)NCCS(=O)(=O)N2CCN(C(=O)c3ccco3)CC2)c1 | inconclusive: 20.6 µM [rising, single point] | 
Cc1ccc(NC(=O)Cn2cc3c(n2)CCCC3)c(C)c1 | inconclusive: 23.1 µM [rising, single point] | 
Cc1cc(Br)ccc1NC(=O)CNC(=O)Cn1ncc(Cl)c(Cl)c1=O | inconclusive: 5.8 µM [cytotoxic, full curve] | 
O=C(NCCCN1CCOCC1)C1CCN(S(=O)(=O)c2ccccc2)CC1 |  | inactive: -3.28%
CCCN(C(=O)CSc1ncnc2sccc12)c1c(N)n(Cc2ccccc2)c(=O)[nH]c1=O | inconclusive: 29.1 µM [rising, single point] | 
CCN(CC)c1ccc(S(=O)(=O)N2CCOCC2)cc1NC(=O)COC(=O)/C=C/c1ccccc1 |  | inactive: -4.23%
N#Cc1ccc(OCC(=O)N(C2CCCCC2)C2CCS(=O)(=O)C2)cc1 (stereo not given) |  | inactive: -5.35%
CC(=O)c1ccc(NC(=O)CN2C(=O)NC(C)(c3ccc4c(c3)OCCO4)C2=O)cc1 (stereo not given) | inconclusive: 5.17 µM [rising, partial curve] | 
CCOC(=O)c1ccc(NC(=S)NCCc2ccc(OC)c(OC)c2)cc1 | inconclusive: 18.4 µM [cytotoxic, single point] | 
Cc1cc(C)n(CC(=O)N/N=C/c2cc([N+](=O)[O-])ccc2O)n1 | inconclusive: 20.6 µM [cytotoxic, single point] | 

Structure (SMILES) | Potency | activity change, negative = cytotoxicity
CCN(CC)CCCNC(=O)CSc1nc(-c2ccc(OC)cc2)cc(C(F)(F)F)n1 |  | inactive: -0.189%
Cc1ccccc1Cc1c(C)nc2ncnn2c1C | inconclusive: 14.6 µM [cytotoxic, partial curve, poor fit] | 
COC(=O)c1cccc(NS(=O)(=O)c2ccc(OC)cc2)c1C | active: 9.2 µM | 
O=C(c1ccncc1)N1N=C(c2ccc(Br)cc2)CC1c1ccccc1O (stereo not given) | active: 20.6 µM | 
S=C(Nc1ccccc1Cl)N(Cc1ccccc1)Cc1cccnc1 | inconclusive: 5.17 µM [cytotoxic, partial curve] | 
COc1cc(NC(=O)Cc2ccc(F)cc2)cc(OC)c1OC | inconclusive: 20.6 µM [cytotoxic, single point] | 
C[C@H](NC(=O)c1nc[nH]c1C(=O)N[C@@H](Cc1ccccc1)C(=O)OC(C)(C)C)C(=O)OC(C)(C)C | inconclusive: 16.4 µM [cytotoxic, single point] | 
CCCCC[C@H]1CCCCC[C@H](O)C[C@@H](O)[C@H](O)/C=C/C(=O)O1 |  | inactive: -12.8%
CC(C)C(=O)Nc1cccc(COc2ccc(CN(Cc3ccccc3)C(=O)OC(C)(C)C)cc2)c1 | inconclusive: 7.31 µM [cytotoxic, partial curve, poor fit] | 
C/C(CC(=O)Nc1ccc(N(C)C)cc1)=N\NC(=O)c1ccc([N+](=O)[O-])cc1 | inconclusive: 23.1 µM [rising, single point] | 
O=C(C1CCN(S(=O)(=O)Cc2ccccc2)CC1)N1CCCc2ccccc21 | inconclusive: 29.1 µM [cytotoxic, single point] | 
O=C(CSc1nnc(CNc2ccc(Cl)cc2)n1Cc1ccccc1)NCc1ccco1 |  | inactive: 5.83%
C=CCC[C@H](Cc1ccc(F)cc1)C(=O)OC[C@@H](NC(=O)[C@@H](CC=C)CC(=O)N(CCO)Cc1ccccc1)C(C)(C)C | inconclusive: 29.1 µM [cytotoxic, single point] | 
CC(OC(=O)CN1C(=O)NC2(CCCC2)C1=O)C(=O)Nc1cccc(Cl)c1Cl (stereo not given) | inconclusive: 29.1 µM [rising, single point] | 
Cc1ccccc1NC(=O)CSc1ccsc1[N+](=O)[O-] | inconclusive: 29.1 µM [cytotoxic, single point] | 
CCOC(=O)c1ccc(NC(=O)c2ccc(CN3C(=O)CCn4nc(C)cc43)cc2)cc1 |  | inactive: 4.17%
O=C(COC(=O)c1cc([N+](=O)[O-])ccc1N1CCCC1)Nc1ccccc1OC(F)F | inconclusive: 8.2 µM [cytotoxic, partial curve, poor fit] | 
COc1cc(C(C(=O)NC2CCCCC2)N(C(=O)Cc2c[nH]c3ccccc23)c2ccc(C)cc2)cc(OC)c1OC (stereo not given) | active: 23.1 µM | 
CCCCN(CC)C(=O)C1CCCN(c2ncnc3c2nc2n3CCCCC2)C1 (stereo not given) |  | inactive: -19.1%
Cc1ccc(O)c(C(=O)c2cnc3c(c2)CN(C)C(=O)N3)c1 | active: 7.94 µM | 
COc1ccccc1N1CCN(C(=O)CCCn2c(=S)[nH]c3ccccc3c2=O)CC1 | inconclusive: 23.1 µM [cytotoxic, single point] | 
O=C(CSc1nnc2scc(-c3ccccc3)n12)Nc1ccc(Cl)cc1 |  | inactive: 18.6%
C/C(=N\Nc1nc(Cl)c(Cl)cc1Cl)c1ccc(S(=O)(=O)NCc2ccco2)cc1 | active: 11.6 µM | 
CC(=O)c1ccc(S(=O)(=O)NCCC(=O)NC2CCN(Cc3ccccc3)CC2)cc1 |  | inactive: -9.57%

Structure (SMILES) | Potency | activity change, negative = cytotoxicity
CCc1cc(C(=O)c2ccc(C)cc2)c(NC(=O)CCl)s1 | inconclusive: 20.6 µM [cytotoxic, single point] | 
Cc1ccc(-n2c(SCC(=O)Nc3cc(S(=O)(=O)N4CCOCC4)ccc3Cl)nc3ccccc3c2=O)cc1 |  | inactive: 7.73%
C[C@]12CCC(=O)C=C1CC[C@@H]1[C@@H]2[C@@H](O)C[C@]2(C=O)[C@@H](C(=O)CO)CC[C@@H]12 |  | inactive: -6.81%
CCc1cccc(C)c1NC(=O)CCCN1C(=O)C(c2ccccc2)Oc2cccnc21 (stereo not given) | inconclusive: 20.6 µM [cytotoxic, single point] | 
CC(=O)Nc1ccc(C(=O)NC2CCSc3ccccc32)cc1 (stereo not given) |  | inactive: 12.4%
O=C(Cn1c(=O)c2ccccc2n2nncc12)Nc1cccc(F)c1 | inconclusive: 29.1 µM [rising, single point] | 
O=C(NCc1nc2ccccc2[nH]1)c1cccc(Cl)c1 |  | inactive: 6.08%
CC(=O)Nc1ccc(NC(=O)COc2ccc3c(c2)CCC3)cc1 | inconclusive: 0.58 µM [rising, full curve, poor fit] | 
O=C1OCC2=C1C(c1ccc3c(c1)OCO3)Sc1ccccc1N2 (stereo not given) |  | inactive: -0.653%
Cc1nn(-c2nc3ccccc3[nH]2)c(N)c1-c1ccc(Cl)cc1 | active: 18.4 µM | 
COCCn1c(=NC(=O)CSCC(=O)NC2CCCCC2)sc2cc(OC)ccc21 | active: 2.91 µM | 
COc1cc(CN2CCC(C(=O)NC(c3ccc(-c4ccccc4)cc3)c3cnccn3)CC2)cc(OC)c1 (stereo not given) | inconclusive: 29.1 µM [cytotoxic, single point] | 
Cc1ccc(Cn2cnc3sc4c(c3c2=O)CCC4)c(C)c1 | inconclusive: 23.1 µM [cytotoxic, partial curve, poor fit] | 
COC(=O)N1C(=O)[C@](c2ccc(Cl)cc2)(C(C)C)N1C(=O)OC |  | inactive: 0.262%
COc1cccc(-c2nc3n(n2)CCc2ccccc2-3)c1 | inconclusive: 13 µM [cytotoxic, partial curve] | 
O=C(Cc1ccc([N+](=O)[O-])cc1)NCc1ccccc1Cl | inconclusive: 29.1 µM [cytotoxic, single point] | 
CCc1nc2ccc(C(=O)N3CCN(c4cccc(C(F)(F)F)c4)CC3)cc2nc1CC |  | inactive: -10.4%
COC(=O)c1ccccc1NC(=O)CN1CCN(C23CC4CC(CC(C4)C2)C3)CC1 | inconclusive: 16.4 µM [cytotoxic, partial curve, poor fit] | 
CC(C)N(Cc1ccccc1)C(=S)NC1CCCCC1 | inconclusive: 18.4 µM [cytotoxic, single point] | 
COc1ccc(NS(=O)(=O)c2ccc(NC(=O)C3CCCO3)cc2)cc1 (stereo not given) |  | inactive: -8.66%
Cc1ccc(NC(=O)CCc2ccccc2)cc1S(=O)(=O)N1CCOCC1 | inconclusive: 18.4 µM [cytotoxic, partial curve, poor fit] | 
O=C(CCl)Nc1c2c(nn1-c1ccccc1)CSC2 | inconclusive: 18.4 µM [cytotoxic, single point] | 

In another format: entries from further up
Structure (SMILES),Potency,"activity change, negative = cytotoxicity"
CC(=O)Nc1ccc(NC(=O)COc2ccc3c(c2)CCC3)cc1,"inconclusive: 0.58 µM [rising, full curve, poor fit]",
O=C1OCC2=C1C(c1ccc3c(c1)OCO3)Sc1ccccc1N2 (stereo not given),,inactive: -0.653%
Cc1nn(-c2nc3ccccc3[nH]2)c(N)c1-c1ccc(Cl)cc1,active: 18.4 µM,
COCCn1c(=NC(=O)CSCC(=O)NC2CCCCC2)sc2cc(OC)ccc21,active: 2.91 µM,
COc1cc(CN2CCC(C(=O)NC(c3ccc(-c4ccccc4)cc3)c3cnccn3)CC2)cc(OC)c1 (stereo not given),"inconclusive: 29.1 µM [cytotoxic, single point]",
